Source: PubChem BioAssay AID1224827 (NIAID, 2016)
Aim: 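Identify regulators of the macrophage TNF-alpha response to bacterial LPS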 (follow-up of hits). System: RAW264.7 G9 mouse macrophage reporter clone. Reagent: single siRNA against mouse genes, 100 nM siRNA. Timing: siRNA for 2 days, then LPS about 16 h. Conditions: bacterial lipopolysaccharide (LPS), 10 ng/ml, cells fixed after overnight (about 16 h) stimulation. Measured: 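TNF promoter reporter red fluorescence in nuclei, background subtracted, normalised per plate and to non-targeting control siRNA, as z-scores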. Reading the numbers: TNF reporter z-score, mean and TNF reporter z-score: higher = stronger Tnf promoter reporter signal; gene median z, three same-vendor siRNAs: higher = stronger Tnf reporter signal for the gene. Call rule: 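Active siRNA: replicate-mean z-score of 2 or more, or -2 or less; no calls for control wells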.
Here is a random part of about 3,800 deposited reagents. In the full data, about 2,200 (57%) got an active call. 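Active means a strong reporter change in either direction; calls are per siRNA, not per gene; qiagen siRNAs gave weaker effects.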 Reagents against one gene are numbered here.

no.	Target gene	reagent no.	TNF reporter z-score, mean	gene median z, three same-vendor siRNAs	TNF reporter z-score, repeat 1	TNF reporter z-score, repeat 2	call
1	Twist1	1	-1.27	-2.33	-2.11	-0.439	inactive
2	Twist1	2	-2.18	-2.33	-2.95	-1.42	active
3	Twist1	3	-2.6	-2.33	-2.56	-2.65	active
4	Twist1	4	2.34	-0.248	4.88	-0.207	active
5	Twist1	5	0.612	-0.248	1.61	-0.389	inactive
6	Twist1	6	-1.64	-0.248	-0.289	-2.98	inactive
7	Snrnp35	1	3.61	-3.43	2.3	4.92	active
8	Snrnp35	2	-3.9	-3.43	-2.08	-5.71	active
9	Snrnp35	3	-4.83	-3.43	-4.79	-4.87	active
10	Snrnp35	4	3.29	1.15	5.6	0.981	active
11	Snrnp35	5	1.9	1.15	4.53	-0.735	inactive
12	Snrnp35	6	-0.275	1.15	1.32	-1.87	inactive
13	Cimip2b	1	-3.17	-3.55	-3.29	-3.05	active
14	Cimip2b	2	-3.82	-3.55	-3.65	-3.99	active
15	Cimip2b	3	-4.75	-3.55	-3.46	-6.05	active
16	Cimip2b	4	1.34	0.62	2.82	-0.14	inactive
17	Cimip2b	5	0.62	0.62	0.561	0.678	inactive
18	Cimip2b	6	-0.0358	0.62	0.984	-1.06	inactive
19	Klhdc3	1	-1.58	-1.98	-2.12	-1.05	inactive
20	Klhdc3	2	-2.15	-1.98	-1.85	-2.45	active
21	Klhdc3	3	-2.06	-1.98	-3.22	-0.898	active
22	Klhdc3	4	4.15	0.841	6.69	1.62	active
23	Klhdc3	5	3.26	0.841	6.46	0.0612	active
24	Klhdc3	6	-0.408	0.841	-0.162	-0.654	inactive
25	Entr1	1	1.62	-2.97	0.676	2.56	inactive
26	Entr1	2	-2.97	-2.97	-3.08	-2.87	active
27	Entr1	3	-3.68	-2.97	-3.88	-3.48	active
28	Entr1	4	3.6	2.84	6.32	0.869	active
29	Entr1	5	2.84	2.84	4.89	0.79	active
30	Entr1	6	2.8	2.84	4.81	0.784	active
31	Agbl5	1	1.35	-0.419	0.939	1.76	inactive
32	Agbl5	2	-0.419	-0.419	-0.643	-0.194	inactive
33	Agbl5	3	-3.46	-0.419	-3.48	-3.44	active
34	Agbl5	4	-0.435	-1.21	-0.139	-0.731	inactive
35	Agbl5	5	-0.899	-1.21	-0.117	-1.68	inactive
36	Agbl5	6	-3.99	-1.21	-3.25	-4.73	active
37	Birc2	1	6.09	4.4	3.98	8.19	active
38	Birc2	2	5.22	4.4	4.81	5.62	active
39	Birc2	3	-2.66	4.4	-2.7	-2.61	active
40	Birc2	4	2.9	0.814	4.23	1.58	active
41	Birc2	5	0.814	0.814	1.44	0.187	inactive
42	Birc2	6	-1.93	0.814	-1.67	-2.19	inactive
43	Bpifb9a	1	-0.508	-1.49	0.503	-1.52	inactive
44	Bpifb9a	2	-1.51	-1.49	-1.26	-1.76	inactive
45	Bpifb9a	3	-1.97	-1.49	-2.49	-1.46	inactive
46	Dap3	1	0.855	-3.1	0.774	0.936	inactive
47	Dap3	2	-3.42	-3.1	-3.21	-3.63	active
48	Dap3	3	-3.32	-3.1	-3.66	-2.98	active
49	Dap3	4	-0.26	-0.771	0.496	-1.02	inactive
50	Dap3	5	-0.771	-0.771	-0.933	-0.608	inactive
51	Dap3	6	-0.648	-0.771	-0.035	-1.26	inactive
52	Rab7	1	0.765	-1.65	-0.149	1.68	inactive
53	Rab7	2	-1.65	-1.65	-2.26	-1.05	inactive
54	Rab7	3	-5.51	-1.65	-5.72	-5.3	active
55	Rab7	4	0.705	-0.381	1.88	-0.467	inactive
56	Rab7	5	-0.223	-0.381	-0.294	-0.151	inactive
57	Rab7	6	-2.81	-0.381	-3.01	-2.61	active
58	Rps4x	1	6.25	3.63	6.02	6.48	active
59	Rps4x	2	3.63	3.63	3.83	3.42	active
60	Rps4x	3	0.0864	3.63	-0.782	0.955	inactive
61	Rps4x	4	0.138	-0.924	1.61	-1.34	inactive
62	Rps4x	5	-1.23	-0.924	-0.509	-1.94	inactive
63	Rps4x	6	-1.07	-0.924	0.335	-2.48	inactive
64	Psma3	1	0.263	-2.24	-0.562	1.09	inactive
65	Psma3	2	-2.24	-2.24	-2.8	-1.67	active
66	Psma3	3	-3.48	-2.24	-3.34	-3.61	active
67	Cog3	1	-0.638	-2.68	-1.05	-0.231	inactive
68	Cog3	2	-3.34	-2.68	-2.7	-3.98	active
69	Cog3	3	-3.86	-2.68	-2.66	-5.07	active
70	Cog3	4	1.59	0.205	3.18	0.000255	inactive
71	Cog3	5	-0.122	0.205	0.453	-0.697	inactive
72	Cog3	6	-1.24	0.205	0.409	-2.89	inactive
73	Dnm2	1	1.12	-2.22	-0.475	2.71	inactive
74	Dnm2	2	-2.22	-2.22	-2.88	-1.56	active
75	Dnm2	3	-4.2	-2.22	-4.29	-4.1	active
76	Dnm2	4	4.67	0.171	7.1	2.24	active
77	Dnm2	5	-0.45	0.171	-0.824	-0.0762	inactive
78	Dnm2	6	-0.653	0.171	0.417	-1.72	inactive

Limited to “TNF reporter z-score, repeat 2” (4 entries from above):
Twist1 #4	-0.207
Twist1 #5	-0.389
Twist1 #6	-2.98
Snrnp35 #1	4.92
